We go through two molecules from article PMC11222446.

No constants are given. Whether binding was seen depends on the method and setting. In cells and extracts the contact can be indirect. Some entries that bind do so weakly or less than the wild type. Sequences can lack the tags named with a protein.

The target of assay [1] is T1, His-PCLAF expressed in HEK293T cells (UniProt Q9CQX4).
T1 sequence: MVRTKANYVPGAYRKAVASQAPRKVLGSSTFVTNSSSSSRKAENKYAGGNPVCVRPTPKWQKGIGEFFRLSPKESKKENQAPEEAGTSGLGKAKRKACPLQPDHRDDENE
As to the kind of experiment: co-IP; HEK293T cells transfected with Flag-Adgrl2 and His-Pclaf plasmids; lysate immunoprecipitated with anti-His or anti-Flag antibody, protein G Sepharose; blotted with anti-Flag or anti-His (both directions).

Assay [2] has as its target T2, FLAG-ADGRL2 expressed in HEK293T cells (UniProt Q8JZZ7).
T2 sequence: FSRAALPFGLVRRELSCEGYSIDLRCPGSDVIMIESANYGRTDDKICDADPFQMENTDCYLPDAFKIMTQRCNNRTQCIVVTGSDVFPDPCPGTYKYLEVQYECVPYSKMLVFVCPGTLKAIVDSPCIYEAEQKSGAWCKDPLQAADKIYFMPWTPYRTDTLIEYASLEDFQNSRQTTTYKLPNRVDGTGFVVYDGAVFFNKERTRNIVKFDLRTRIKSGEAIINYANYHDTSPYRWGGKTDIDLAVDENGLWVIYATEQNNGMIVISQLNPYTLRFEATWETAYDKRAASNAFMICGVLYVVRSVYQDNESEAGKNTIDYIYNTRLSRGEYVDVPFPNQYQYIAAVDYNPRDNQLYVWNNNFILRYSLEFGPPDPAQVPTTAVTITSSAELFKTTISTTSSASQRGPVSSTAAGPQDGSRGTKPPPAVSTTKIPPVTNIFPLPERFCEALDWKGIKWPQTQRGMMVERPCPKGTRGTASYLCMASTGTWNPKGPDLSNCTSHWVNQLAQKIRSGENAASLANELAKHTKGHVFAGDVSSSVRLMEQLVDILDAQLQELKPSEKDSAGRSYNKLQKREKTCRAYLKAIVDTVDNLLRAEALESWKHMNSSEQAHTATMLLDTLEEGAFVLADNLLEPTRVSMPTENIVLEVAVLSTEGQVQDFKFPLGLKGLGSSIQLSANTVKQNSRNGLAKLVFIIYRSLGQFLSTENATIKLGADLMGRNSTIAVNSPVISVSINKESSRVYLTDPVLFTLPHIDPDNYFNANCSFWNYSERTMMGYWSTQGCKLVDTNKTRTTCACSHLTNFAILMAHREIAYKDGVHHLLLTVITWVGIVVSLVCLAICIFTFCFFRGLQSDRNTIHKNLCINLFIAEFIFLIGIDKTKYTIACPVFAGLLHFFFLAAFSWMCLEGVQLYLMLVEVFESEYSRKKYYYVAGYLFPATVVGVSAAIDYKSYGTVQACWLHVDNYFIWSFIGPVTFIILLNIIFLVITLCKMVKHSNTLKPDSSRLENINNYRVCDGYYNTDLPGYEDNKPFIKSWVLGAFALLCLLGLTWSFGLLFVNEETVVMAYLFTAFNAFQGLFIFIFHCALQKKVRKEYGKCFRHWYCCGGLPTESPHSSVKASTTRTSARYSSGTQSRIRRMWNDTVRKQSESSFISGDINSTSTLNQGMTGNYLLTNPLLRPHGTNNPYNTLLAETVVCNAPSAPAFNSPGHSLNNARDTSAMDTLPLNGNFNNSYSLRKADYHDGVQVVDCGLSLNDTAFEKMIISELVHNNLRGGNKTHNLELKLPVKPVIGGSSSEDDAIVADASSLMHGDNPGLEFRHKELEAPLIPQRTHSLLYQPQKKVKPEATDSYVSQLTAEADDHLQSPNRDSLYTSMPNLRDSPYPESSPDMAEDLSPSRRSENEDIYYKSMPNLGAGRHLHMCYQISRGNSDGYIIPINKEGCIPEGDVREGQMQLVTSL
The assay is described as above.

B1: FLAG-ADGRL2 expressed in HEK293T cells (receptor, UniProt Q8JZZ7 26-1487)
chain: T2 sequence
As for B1, the binding entry in assay [1] is given as “binds”.

B2: His-PCLAF expressed in HEK293T cells (protein, UniProt Q9CQX4 1-110)
chain: T1 sequence
For the molecule B2, in assay [2], the binding entry is “binds”.
